This is one part of the list.
Tests used:
Assay in all cases: glycan array binding signal (z-score within array); higher = stronger binding
Conditions in all cases: glycan notation: IUPAC condensed, linker removed
[1] = biological target: Glc(b1-4)Glc
Outline: (§1)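 The binding signal is a Z-score computed within each array. Data were drawn from 3228 arrays in the Consortium for Functional Glycomics database, restricted to those with a known protein sequence. Scores were averaged over arrays of the same protein sequence at different concentrations or buffers, and over linkers, and negative values can be taken as non-binding.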

[2] = biological target: Glc(b1-6)Glc
Outline: as §1

[3] = biological target: GlcA(b1-3)Gal
Outline: as §1

[4] = biological target: GlcA(b1-3)GlcNAc
Outline: as §1

[5] = biological target: GlcA(b1-6)Gal
Outline: as §1

[6] = biological target: GlcA3S(b1-3)Gal(b1-4)GlcNAc(b1-2)Man
Outline: as §1

[7] = biological target: GlcA3S(b1-3)Gal(b1-4)GlcNAc(b1-3)Gal(b1-4)Glc
Outline: as §1

[8] = biological target: GlcNAc(a1-3)Gal(b1-4)GlcNAc
Outline: as §1

[9] = biological target: GlcNAc(a1-4)Gal(b1-3)GlcNAc
Outline: as §1

[10] = biological target: GlcNAc(a1-4)Gal(b1-4)GalNAc
Outline: as §1

[11] = biological target: GlcNAc(a1-4)Gal(b1-4)GlcNAc
Outline: as §1

[12] = biological target: GlcNAc(a1-4)Gal(b1-4)GlcNAc(b1-3)Gal(b1-4)Glc
Outline: as §1

[13] = biological target: GlcNAc(a1-4)Gal(b1-4)GlcNAc(b1-3)Gal(b1-4)GlcNAc
Outline: as §1

[14] = biological target: GlcNAc(a1-4)Gal(b1-4)GlcNAc(b1-3)Gal(b1-4)GlcNAc(b1-3)Gal(b1-4)GlcNAc
Outline: as §1

[15] = biological target: GlcNAc(a1-4)Gal(b1-4)GlcNAc(b1-3)Gal(b1-4)[Fuc(a1-3)]GlcNAc(b1-3)Gal(b1-4)[Fuc(a1-3)]GlcNAc
Outline: as §1

[16] = biological target: GlcNAc(a1-6)Gal(b1-4)GlcNAc
Outline: as §1

[17] = biological target: GlcNAc(b1-2)Gal(b1-3)GalNAc
Outline: as §1

[18] = biological target: GlcNAc(b1-2)Man(a1-3)[GlcNAc(b1-2)Man(a1-6)]Man(b1-4)GlcNAc(b1-4)GlcNAc
Outline: as §1

[19] = biological target: GlcNAc(b1-2)Man(a1-3)[GlcNAc(b1-2)Man(a1-6)]Man(b1-4)GlcNAc(b1-4)[Fuc(a1-6)]GlcNAc
Outline: as §1

[20] = biological target: GlcNAc(b1-2)Man(a1-3)[GlcNAc(b1-4)][GlcNAc(b1-2)Man(a1-6)]Man(b1-4)GlcNAc(b1-4)GlcNAc
Outline: as §1

[21] = biological target: GlcNAc(b1-2)Man(a1-3)[GlcNAc(b1-4)][GlcNAc(b1-2)Man(a1-6)]Man(b1-4)GlcNAc(b1-4)[Fuc(a1-6)]GlcNAc
Outline: as §1

[22] = biological target: GlcNAc(b1-2)[GlcNAc(b1-4)]Man(a1-3)[GlcNAc(b1-2)Man(a1-6)]Man(b1-4)GlcNAc(b1-4)GlcNAc
Outline: as §1

[23] = biological target: GlcNAc(b1-2)[GlcNAc(b1-4)]Man(a1-3)[GlcNAc(b1-4)][GlcNAc(b1-2)Man(a1-6)]Man(b1-4)GlcNAc(b1-4)GlcNAc
Outline: as §1

[24] = biological target: GlcNAc(b1-2)[GlcNAc(b1-4)]Man(a1-3)[GlcNAc(b1-4)][GlcNAc(b1-2)[GlcNAc(b1-6)]Man(a1-6)]Man(b1-4)GlcNAc(b1-4)GlcNAc
Outline: as §1

[25] = biological target: GlcNAc(b1-2)[GlcNAc(b1-4)]Man(a1-3)[GlcNAc(b1-4)][GlcNAc(b1-2)[GlcNAc(b1-6)]Man(a1-6)]Man(b1-4)GlcNAc(b1-4)[Fuc(a1-6)]GlcNAc
Outline: as §1

[26] = biological target: GlcNAc(b1-2)[GlcNAc(b1-6)]Man(a1-6)[GlcNAc(b1-2)Man(a1-3)]Man(b1-4)GlcNAc(b1-4)GlcNAc
Outline: as §1

[27] = biological target: GlcNAc(b1-2)[GlcNAc(b1-6)]Man(a1-6)[GlcNAc(b1-2)Man(a1-3)]Man(b1-4)GlcNAc(b1-4)[Fuc(a1-6)]GlcNAc
Outline: as §1

[28] = biological target: GlcNAc(b1-2)[GlcNAc(b1-6)]Man(a1-6)[GlcNAc(b1-4)][GlcNAc(b1-2)Man(a1-3)]Man(b1-4)GlcNAc(b1-4)GlcNAc
Outline: as §1

[29] = biological target: GlcNAc(b1-3)Fuc
Outline: as §1

[30] = biological target: GlcNAc(b1-3)Gal
Outline: as §1

[31] = biological target: GlcNAc(b1-3)Gal(b1-3)GalNAc
Outline: as §1

[32] = biological target: GlcNAc(b1-3)Gal(b1-4)Glc
Outline: as §1

[33] = biological target: GlcNAc(b1-3)Gal(b1-4)GlcNAc
Outline: as §1

[34] = biological target: GlcNAc(b1-3)Gal(b1-4)GlcNAc(b1-2)Man(a1-3)[GlcNAc(b1-3)Gal(b1-4)GlcNAc(b1-2)Man(a1-6)]Man(b1-4)GlcNAc(b1-4)GlcNAc
Outline: as §1

[35] = biological target: GlcNAc(b1-3)Gal(b1-4)GlcNAc(b1-2)Man(a1-3)[GlcNAc(b1-3)Gal(b1-4)GlcNAc(b1-2)Man(a1-6)]Man(b1-4)GlcNAc(b1-4)[Fuc(a1-6)]GlcNAc
Outline: as §1

[36] = biological target: GlcNAc(b1-3)Gal(b1-4)GlcNAc(b1-2)[GlcNAc(b1-3)Gal(b1-4)GlcNAc(b1-6)]Man(a1-6)[GlcNAc(b1-3)Gal(b1-4)GlcNAc(b1-2)Man(a1-3)]Man(b1-4)GlcNAc(b1-4)GlcNAc
Outline: as §1

[37] = biological target: GlcNAc(b1-3)Gal(b1-4)GlcNAc(b1-3)Gal(b1-4)GlcNAc
Outline: as §1

B1: RbmA (Vibrio cholerae), A0A2H4NFB8 (protein)
chain: MSNFKGSIMNKRHYYLASCLALLFSTASYAEVDCELQPVIEANLSLNQNQLASNGGYISSQLGIRNESCETVKFKYWLSIKGPEGIYFPAKAVVGVDTAQQESDALTDGRMLNVTRGFWVPEYMADGKYTVSLQVVAENGEVFKANQEFVKGGDLNSLPELNGLTIDIKNQFGINSVESTGGFVPFTIDLNNGREGEAKVEFWMTAVGPDGLIIPVHSREKWMIIAGNTFSKVRGINFDKSYPAGEYTINAQVVDIVSGERVEQLMTVVKK
For B1, the “glycan array binding signal (z-score)” value [1] was -1.24, the “glycan array binding signal (z-score)” value [2] was -0.471 and the “glycan array binding signal (z-score)” value [3] was -0.353. The “glycan array binding signal (z-score)” value [4] was 1.7, the “glycan array binding signal (z-score)” value [5] was -0.721 and the “glycan array binding signal (z-score)” value [6] was -0.555. For the same binder, the “glycan array binding signal (z-score)” value [7] was -0.325, the “glycan array binding signal (z-score)” value [8] was -1.07 and the “glycan array binding signal (z-score)” value [9] was 0.397. The “glycan array binding signal (z-score)” value [10] was -0.351, the “glycan array binding signal (z-score)” value [11] was -0.51 and the “glycan array binding signal (z-score)” value [12] was -0.328. For the same binder, the “glycan array binding signal (z-score)” value [13] was 0.119, the “glycan array binding signal (z-score)” value [14] was 3.48 and the “glycan array binding signal (z-score)” value [15] was 4.35. The “glycan array binding signal (z-score)” value [16] was 1.6, the “glycan array binding signal (z-score)” value [17] was -0.29 and the “glycan array binding signal (z-score)” value [18] was -0.108. For the same binder, the “glycan array binding signal (z-score)” value [19] was -0.189, the “glycan array binding signal (z-score)” value [20] was 0.16 and the “glycan array binding signal (z-score)” value [21] was 0.27. The “glycan array binding signal (z-score)” value [22] was -0.394, the “glycan array binding signal (z-score)” value [23] was -0.869 and the “glycan array binding signal (z-score)” value [24] was 0.291. For the same binder, the “glycan array binding signal (z-score)” value [25] was -0.751, the “glycan array binding signal (z-score)” value [26] was -0.384 and the “glycan array binding signal (z-score)” value [27] was -0.474. For the same binder, the “glycan array binding signal (z-score)” value [28] was 0.351, the “glycan array binding signal (z-score)” value [29] was -0.096 and the “glycan array binding signal (z-score)” value [30] was -0.029. The “glycan array binding signal (z-score)” value [31] was 0.322, the “glycan array binding signal (z-score)” value [32] was -0.931 and the “glycan array binding signal (z-score)” value [33] was 0.727. For the same binder, the “glycan array binding signal (z-score)” value [34] was -0.474, the “glycan array binding signal (z-score)” value [35] was -0.508 and the “glycan array binding signal (z-score)” value [36] was 0.114. For the same binder, the “glycan array binding signal (z-score)” value [37] was -0.783.

— the supplement of paper PMC8728848
